# Screen size: about 1,800 compounds; fewer than 10 were called active.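 Rule for the calls: active = inhibition of granule release above a set limit; inactive = the rest.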 This is one part of the list.
# Test: LAMP-1 surface externalization blockers in TALL-104 cells – cell-based, flow cytometry, validation set (AID 651664)
# Conditions: TALL-104 LAMP-1 externalization, at 15.2 µM, stronger effect = higher value, stimulated with thapsigargin and PMA
row,Structure (SMILES),inhibition
1,NC(=O)SCC(=O)Nc1cccc(Cl)c1,inactive: -0.9%
2,COCCn1c(N)c(NCc2ccccc2)c(=O)n(CC(=O)Nc2cc(C)ccc2C)c1=O,inactive: -2.7%
3,CCN(CC)C(=O)N1CCN(C(=O)c2ccc(C)cn2)CC1,inactive: 3%
4,CC(C)CC(=O)N1CCN(S(C)(=O)=O)CC1,inactive: -0.2%
5,CCOC(=O)C(CC)(CC)C(=O)/C=C/c1cccc(Br)c1,inactive: -2.2%
6,CCC(=O)Oc1cccc(C(=O)Nc2ccc(-c3nnc(-c4ccco4)o3)cc2)c1,inactive: -1.3%
7,Cc1cccc(C(=O)NN2C(=O)C3C(c4ccccc4)C=CC(c4ccccc4)C3C2=O)c1 (configuration not stated),inactive: 0.2%
8,Cc1cc(NC(=O)COC(=O)C2CCN(S(=O)(=O)c3c(Cl)cccc3Cl)CC2)no1,inactive: -3.4%
9,N#Cc1nc(-c2ccco2)oc1N1CCN(c2ccccc2)CC1,inactive: 11.5%
10,Nc1c(-c2ccccc2)cnn1-c1cccc(C(F)(F)F)c1,inactive: 1.5%
11,CCCCSC(=S)N(C)C1CCS(=O)(=O)C1 (configuration not stated),inactive: -0.4%
12,CCCc1[nH]nc2c1C(c1cccnc1)C(C#N)=C(N)O2 (configuration not stated),inactive: 2.5%
13,CCN(CC)C(=S)Sc1c(-c2ccccc2)c2cc(Cl)ccc2[nH]c1=O,inactive: 2.1%
14,c1ccc(OCCCc2nc(-c3ccccn3)no2)cc1,inactive: -0.5%
15,Cc1ccc(Cl)cc1NC(=O)CSC(N)=O,inactive: -3%
16,FC(F)(F)c1cccc(N2CCc3cn[nH]c32)c1,inactive: -0.1%
17,CCOC(=O)C1CCN(S(=O)(=O)c2cccc(-c3csc(C)n3)c2)CC1,inactive: -0.2%
18,Cc1ccc2c(c1Br)/C(=N/N1C(=O)c3ccccc3C1=O)C(=O)N2,inactive: -3.6%
19,O=S(=O)(NC1c2cccc3cccc(c23)C1N1CCN(CCO)CC1)c1ccccc1 (configuration not stated),inactive: -1.3%
20,N#CC1=C(N)N(c2ccc(Oc3ccccc3)cc2)C(=O)C1,inactive: 1.8%
21,CCOC(=O)c1cc(-c2ccccc2)sc1NC(=O)CN1C(=O)c2ccccc2C1=O,inactive: -0.7%
22,O=C(CSc1nnc(-c2cccs2)n1-c1ccccc1)Nc1ccccc1,inactive: 22.8%
23,CCN1C(=O)/C(=C/c2ccc(C)s2)SC1=Nc1ccc(OC)cc1,inactive: 3.3%
24,c1csc(-c2cn3c(n2)SCC3)c1,inactive: 0.4%
25,COc1ccc(S(=O)(=O)N(C)CC(=O)Nc2ccccc2C(F)(F)F)cc1OC,inactive: -1.6%

# Ordered by SMILES length (descending): some entries from above.
row,Structure (SMILES),inhibition
7,Cc1cccc(C(=O)NN2C(=O)C3C(c4ccccc4)C=CC(c4ccccc4)C3C2=O)c1 (configuration not stated),inactive: 0.2%
8,Cc1cc(NC(=O)COC(=O)C2CCN(S(=O)(=O)c3c(Cl)cccc3Cl)CC2)no1,inactive: -3.4%
2,COCCn1c(N)c(NCc2ccccc2)c(=O)n(CC(=O)Nc2cc(C)ccc2C)c1=O,inactive: -2.7%
6,CCC(=O)Oc1cccc(C(=O)Nc2ccc(-c3nnc(-c4ccco4)o3)cc2)c1,inactive: -1.3%
19,O=S(=O)(NC1c2cccc3cccc(c23)C1N1CCN(CCO)CC1)c1ccccc1 (configuration not stated),inactive: -1.3%
25,COc1ccc(S(=O)(=O)N(C)CC(=O)Nc2ccccc2C(F)(F)F)cc1OC,inactive: -1.6%
17,CCOC(=O)C1CCN(S(=O)(=O)c2cccc(-c3csc(C)n3)c2)CC1,inactive: -0.2%
13,CCN(CC)C(=S)Sc1c(-c2ccccc2)c2cc(Cl)ccc2[nH]c1=O,inactive: 2.1%
23,CCN1C(=O)/C(=C/c2ccc(C)s2)SC1=Nc1ccc(OC)cc1,inactive: 3.3%
22,O=C(CSc1nnc(-c2cccs2)n1-c1ccccc1)Nc1ccccc1,inactive: 22.8%
20,N#CC1=C(N)N(c2ccc(Oc3ccccc3)cc2)C(=O)C1,inactive: 1.8%
9,N#Cc1nc(-c2ccco2)oc1N1CCN(c2ccccc2)CC1,inactive: 11.5%
16,FC(F)(F)c1cccc(N2CCc3cn[nH]c32)c1,inactive: -0.1%
14,c1ccc(OCCCc2nc(-c3ccccn3)no2)cc1,inactive: -0.5%
4,CC(C)CC(=O)N1CCN(S(C)(=O)=O)CC1,inactive: -0.2%
11,CCCCSC(=S)N(C)C1CCS(=O)(=O)C1 (configuration not stated),inactive: -0.4%
15,Cc1ccc(Cl)cc1NC(=O)CSC(N)=O,inactive: -3%
1,NC(=O)SCC(=O)Nc1cccc(Cl)c1,inactive: -0.9%
24,c1csc(-c2cn3c(n2)SCC3)c1,inactive: 0.4%

# More compounds follow:

row,Structure (SMILES),inhibition
1,CCN(CC)S(=O)(=O)c1ccc2c(c1)nc(CCC(=O)Nc1cccc(C(F)(F)F)c1)n2CC,inactive: -1.5%
2,CC1CCN(S(=O)(=O)c2ccc3c(c2)C(=NO)c2cc(S(=O)(=O)N4CCC(C)CC4)ccc2-3)CC1,inactive: -3.3%
3,O=c1c(Cc2ccc(F)cc2)c(O)ccn1C1CCCCC1,inactive: 0.2%
4,CCC1c2ccc(C)n2CCN1C(=O)Nc1ccccc1OC (configuration not stated),inactive: 2.3%
5,Cc1onc(-c2c(F)cccc2Cl)c1C(=O)NCc1ccco1,inactive: 4.1%
6,Cc1ccc(-c2nnc(-c3ccc(NC(=O)c4ccco4)cc3)o2)cc1,inactive: -3.9%
7,Cc1cc2nc(C)n(CCCNC(=O)Nc3ccc(C#N)cc3)c2cc1C,inactive: 3.9%
8,CC(C)(C)n1nnnc1C(c1cccnc1)N(Cc1ccccc1)Cc1ccco1 (configuration not stated),inactive: -3.9%
9,O=S(=O)(/N=C(/Nc1cccc2ccccc12)c1ccccc1)c1cccs1,inactive: -5.3%
10,O=C(Nc1ccccc1)c1ccn[nH]1,inactive: 3%
11,CC(C)=CCCC1=CCC2C(=O)NNC(=O)C2C1 (configuration not stated),inactive: 0.5%
12,O=C(CCSc1nc(-c2ccco2)cc(C(F)(F)F)n1)NCC1CCCO1 (configuration not stated),inactive: 0.1%
13,CCOC(=O)C1CCN(C(=O)CSc2n[nH]c(=O)[nH]c2=O)CC1,inactive: 4.9%
14,CCN(CC)c1ccc(-c2nnc(SCC(=O)Nc3ccccc3C#N)n2-c2ccccc2)cc1,inactive: 1.5%
15,Cc1ccc(OCC(=O)Nc2ccc(-c3nnc(-c4ccco4)o3)cc2)cc1,inactive: -1.4%
16,Cc1[nH]c(=O)[nH]c(=O)c1CSc1nnc([C@@H](NC(=O)OC(C)(C)C)C(C)C)o1,inactive: -2.5%
17,COc1ccc(/C=C(/C#N)C(=O)Nc2cccc(C)c2C)cc1C(=O)O,inactive: 3.3%
18,Nc1nc(N)nc(-c2ccccc2O)n1,inactive: -1.6%
19,Cc1ccc2cc(CN(CCN3CCOCC3)C(=O)NCc3ccccc3)c(=O)[nH]c2c1C,inactive: 9%
20,O=C(c1ccccc1F)N1CCN(Cc2ccccc2F)CC1,inactive: 0.5%
21,CCCC(=O)Nc1ccc(Sc2ccc([N+](=O)[O-])cc2)cc1,inactive: -1.4%
22,O=C(Nc1ccc(N2CCN(C(=O)c3ccccc3)CC2)c(Cl)c1)c1ccco1,inactive: 1.5%
23,COc1cc(C2c3c(oc4ccccc4c3=O)C(=O)N2Cc2ccco2)ccc1O (configuration not stated),inactive: -0.5%
24,Cc1cc(=O)n(CC(C)O)c(O)c1C#N (configuration not stated),inactive: -5%
25,FC(F)(F)c1cccc(N2CCN(C(=S)NC3CCCC3)CC2)c1,inactive: -2.1%

row,Structure (SMILES),inhibition
1,CS(=O)(=O)N(CCc1ccccc1)CC(=O)NCc1ccco1,inactive: -1.1%
2,COc1ccc(C(=O)Nc2ccc(Cl)c(Cl)c2)c(OC)n1,inactive: -0.6%
3,O=C(N/N=C/c1ccncc1)c1cc([N+](=O)[O-])cc([N+](=O)[O-])c1O,inactive: 6%
4,CCS(=O)(=O)N1CCCC(C(=O)NCc2cccnc2)C1 (configuration not stated),inactive: -0.6%
5,Cc1cccc(C)c1OCC(=O)Nc1oc(-c2ccccc2)c(-c2ccccc2)c1C#N,inactive: -6.1%
6,NC(=O)c1ccc2c(c1)OCCO2,inactive: 1.5%
7,CCOn1c(=O)c(C)[n+]([O-])c2ccccc21,inactive: 2.6%
8,O=C(COc1cccc(NC(=O)c2cccc([N+](=O)[O-])c2)c1)c1ccc(F)cc1,inactive: 0.9%
9,O=C(Nc1ccccc1)c1ccc(CN2CCC(Cc3ccccc3)CC2)cc1,inactive: 1.3%
10,CCc1c(C)nc2ncnn2c1N1CCCC(C(=O)Nc2ccc(NC(C)=O)cc2)C1 (configuration not stated),inactive: 7.9%
11,CC1(C)CC(N2CCC(=O)N(C3CC(C)(C)NC(C)(C)C3)C2)CC(C)(C)N1,inactive: 1.6%
12,CCc1cccc(C)c1NC(=O)C(c1ccc(O)cc1)N1CCC1=O (configuration not stated),inactive: -1.1%
13,CCOC(=O)c1ccc(OCC(=O)c2ccc(O)cc2O)cc1,inactive: 3.5%
14,Cn1c(C(=O)N2CCOCC2)cnc1Sc1ncc(C(F)(F)F)cc1Cl,inactive: 0.3%
15,O=C(O)C1C2CCC(C2)C1C(=O)NCc1ccco1 (configuration not stated),inactive: 2.1%
16,COc1ccc2c(c1)[nH]c1c(=O)n(Cc3ccco3)cnc12,inactive: -0.1%
17,CCC(C)c1ccc(NC(=S)Nc2ccc(OC)c(OC)c2)cc1 (configuration not stated),inactive: -0.5%
18,CC(C)NC(=O)c1cnc(Sc2ncc(C(F)(F)F)cc2Cl)n1C,inactive: -2.7%
19,Cc1ccc(S(=O)(=O)N/N=C/c2ccc(OCC(=O)NC(C)C)cc2)cc1,inactive: 4.1%
20,CCn1c(SC)nnc1-c1sc2cc(Cl)ccc2c1Cl,inactive: -1%
21,CCC(C(=O)O)n1c(C(F)(F)F)nc2ccccc21 (configuration not stated),inactive: -2.9%
22,C/C(=N\NC(=O)c1cccc(Cl)c1)c1cccc(NC(=O)c2ccco2)c1,inactive: -1.8%
23,CCOC(=O)N1CCC(NC(=O)Cn2cccc2C(=O)c2ccccc2)CC1,inactive: 1.3%
24,CCCCc1cc(=O)oc2c(CN(CC)CC)c(O)c(Cl)cc12,inactive: 0.1%
25,O=C(NCc1ccccc1)c1cc2ccccc2o1,inactive: 2%

row,Structure (SMILES),inhibition
1,Cc1ccc(Cn2c(S(=O)(=O)O)nc3ccccc32)cc1,inactive: 0.1%
2,Cc1cc(C(=O)CN2C(=O)NC3(CCCc4ccccc43)C2=O)c(C)n1Cc1ccccc1 (configuration not stated),inactive: -2.6%
3,CCn1nnc(-c2ccccc2NC(=O)c2cnccn2)n1,inactive: -1.3%
4,S=P(c1ccc(N2CCOCC2)cc1N1CCOCC1)(N1CCOCC1)N1CCOCC1,inactive: 4.1%
5,COc1ccccc1C(=O)Nc1ccc(NC(=O)c2ccco2)c(C)c1,inactive: 0.4%
6,Clc1ccc(/C=N/NC(=Nc2ccccc2)c2ccccn2)c(Cl)c1,inactive: 1.5%
7,O=C1CN=C(Nc2ccc(Cl)cc2)N1c1ccccc1,inactive: 6.5%
8,COc1ccc(S(=O)(=O)NCCSCc2ccco2)cc1,inactive: -0.9%
9,CCn1ncc(CNC(=O)CCCSc2nc(-c3ccco3)cc(C(F)(F)F)n2)c1C,inactive: -2.1%
10,COc1ccccc1C1/C(=C(/O)c2ccc(C)cc2)C(=O)C(=O)N1CC(C)O (configuration not stated),inactive: 0.7%
11,CCCNC(=O)c1ccccc1NC(=O)c1ccc(CSc2ccccc2)cc1,inactive: -0.5%
12,O=C(Nc1ccc(N2CCCC2)c(Cl)c1)c1cccnc1,inactive: -0.9%
13,CCOC(=O)Nc1cc(C(=O)OCC)c(C)nc1C,inactive: -3%
14,O=C(Cc1cc(=O)[nH][nH]1)N/N=C/C(Cl)=C/c1ccccc1,inactive: -4.6%
15,O=C(O)CC(NCc1ccco1)C(=O)OCCc1ccccc1 (configuration not stated),inactive: 1.2%
16,Cc1ccc(-c2nc3cc(N)ccc3o2)c(C)c1,inactive: 1.9%
17,COc1cc(-c2nnc(-c3cccs3)o2)cc(OC)c1OC,inactive: 3.1%
18,CC(C)(C)OC(=O)N1CCCC1C(=O)NCCc1ccccc1 (configuration not stated),inactive: 0.7%
19,CC(C)CN(CC(C)C)c1nc(N)c(C#N)c(CC#N)c1C#N,inactive: -0.1%
20,CCOc1ccc(C2NC(=O)c3ccccc3O2)cc1 (configuration not stated),inactive: 1.9%
21,COc1ccc(CCNC(=O)C2CCC(CNc3c(N4CCCC4)c(=O)c3=O)CC2)cc1OC (configuration not stated),inactive: -2.4%
22,Cc1ccc(S(=O)(=O)N2CCOCC2)cc1C(=O)OCC(=O)N1CCc2ccccc2C1,inactive: -0.4%

# From PubChem BioAssay AID651664 (NMMLSC, 2012)
